From article PMC11753365
Like-named read-outs stand apart in the source and are kept apart here. These are yes or no findings as the source states them, for the method shown. In cells and extracts the contact can be indirect. These calls come from enrichment with a bait or labelling near it, and not all partners need be listed. For part of these data: Tags and fused reporters may be left off the sequences shown.

Amino acid sequences for entries named in this document (tags omitted).
UniProt Q9D752: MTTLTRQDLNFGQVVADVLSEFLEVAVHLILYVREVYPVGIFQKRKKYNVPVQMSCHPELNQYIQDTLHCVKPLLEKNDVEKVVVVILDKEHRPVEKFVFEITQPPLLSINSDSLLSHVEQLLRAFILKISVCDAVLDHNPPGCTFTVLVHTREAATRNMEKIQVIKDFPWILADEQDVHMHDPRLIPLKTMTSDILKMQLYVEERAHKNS

How the values were obtained:
Test in all cases: affinity purification with mass spectrometry; TwinStrep–HA–SHLD1 or TwinStrep–HA–SHLD3 captured on MagStrep-XT beads from CH12-F3 lysates (benzonase lysis buffer, second incubation at 450 mM KCl), eluted with biotin, LC–MS/MS with label-free quantitation against a beads-only control; cells mock-treated or irradiated (10 Gy, 1 h recovery); two independent experiments
TwinStrep–HA–SHLD1 [1] = target: T1, TwinStrep–HA–SHLD1 (UniProt Q9D112)
T1 sequence: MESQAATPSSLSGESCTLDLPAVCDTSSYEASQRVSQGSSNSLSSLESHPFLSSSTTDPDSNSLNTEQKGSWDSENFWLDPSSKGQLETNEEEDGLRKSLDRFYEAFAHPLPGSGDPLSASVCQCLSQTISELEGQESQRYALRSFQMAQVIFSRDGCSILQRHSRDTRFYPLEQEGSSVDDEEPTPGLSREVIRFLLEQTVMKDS

TwinStrep–HA–SHLD3 = target: TwinStrep–HA–SHLD3
TwinStrep–HA–SHLD1 [2] = target: T1, TwinStrep–HA–SHLD1; remark: listed apart in the source
[3] = target: T2, TwinStrep–HA–SHLD1, Q9D112; details: remark: other sources report otherwise
T2 chain: T1 sequence

Molecule: Rev7 (MAD2L2) (from UniProt Q9D752 1-211)
- binding (TwinStrep–HA–SHLD1 [1]): binds

B1: Stn1 (protein, UniProt Q8K2X3 1-378)
chain: MPQPCLLMECESSPREEEIPPLFWGLDPVFLAFAKLYIKDILEMKESQQVPGTYFYNGHPIRRVDIMGAVISVKERETFYSYGVDDATGVINCVCWKKLSNAESSSDPAILSTARELSMTSQLKKLQETIEQKTRIGIGDIIRVRGSVRMFREEREICANIYYKVDDPVWNMQIARMLELPKLYQKVYDQPFRNPALQEEEALNNKDNLDLAGLTSLLSEKIKEFLQEKKMQSFYQQELETVESLQSLASRPVTHSTGSDQVELKDSGTSGVAQRVFKNALQLLQEKGLVFQRDSGSDKLYYVTTKDKDLQQKIYHIIKEDCQKPNHMEKGCHLLHILNCVHLNLRWDLSKAVLQRVLELLEDQSDIVSTADHYYAAF
- binding (TwinStrep–HA–SHLD3): binds

B2: Shld2 (FAM35A) (protein, UniProt Q3UEN2 1-891)
chain: MSQGSQVHIFLGAPVAPLKTTVSQGTASLMSTANAWEKVRLFYKQHSLYLKAGDQEFKNLEDCQVPKGLGPPGLLSGDVLTTSVRRSAQVDEDFKHSASEAQSVKSQVNLSDMTSGQMCGLGDGVQHLPEEEKDQKLQCKNKKITDEQSKNQSDPCVRNFQRDLFALDLKCAAKLDLGCCTEQMSTGTKPEPTGHRERQSQESFSDTRCEPQSEGAVRKASDQRLSAEAEFLSVLTSSQRAFLAQGNDKGQDCINKSTVNMEAEPTGSQGVRRTEGDFSKPGGDFEEESENEQSQVYSLELFSPVCPESESSHSHINPGKNLENTSSQELFSNEENLPPNELCSSHPSTANRSWSCKDDSHHSKALSEVHQVSKKPRMDSNIREAAKAVPQRVMSELKDSKKISLIKNCDSKNQKYNCLVMVLTPCHVKEITIKSGPNSGSKVPLATIVVIDQSEIKKRVVLWRTAAFGALTVFLGDIILLTDVVLYEDQWIGETVLQSTFTSQLLNLGSYSYVQPEKYSNVIANVILQDLLTYVSTKHSYLKDLPQRQPQKMNTVEFVELEQLQPDILVHAVLRVVDVTVLTEALYSYRGQKQRKVVLTVEQAQGQHYVLVLWGPGAAWYTQLQRKKDSIWEFKYLFVQRNSILENLELHTTLWSSCECLFDDDTRAISFKTKFQKNTSSFVKISDLATHLEDKYSGVVLIKAKVSELVFSAAAAQKIALNARSTLQSIFSSLPSIVYAGCAHCGSELETDENRIYRQCLSCLPFVGKKIFYRPALMTIVDGRYNTCVHVGSKMMEQILLNISPDCLNRVIVPSSEVTYGMVASDLLHSLLAVSAEPCVLKIQSLFELDENSYPLQQDFSLLDFCPDSRKLWSPGLSLRAEGTGGIPGKE
- binding (TwinStrep–HA–SHLD3): binds
- binding (TwinStrep–HA–SHLD1 [2]): binds

B3: Shld3 (FLJ26957), endogenous (protein, UniProt Q9CZV2 1-255)
chain: MDSCRMTTEVILHYRPYENDPKQLAKIAENVIQDFPTHPLPRFIPWFPYDESKLPLKPERLPPVISEEAAESVKQYLAISEPGVKSQSYDCTVDLLEFQPSSKLQHFIQSHTVKEQTNAAHLDKNSGKEKQHKQRSWSVSLASSHCPEKIFPLSRKLQASLRTLHLHSFHRARWTLEYSVCNNQTLEDIWTKLNRLIRRDELPSCNATIQRQLGQIWVFCDIKCCEYVGNLLKERLSLIGKIDLFVHKYGVIFSM
- binding (TwinStrep–HA–SHLD1 [2]): binds

B4: Shld1 (C20orf196), endogenous (protein, UniProt Q9D112 1-206)
chain: T1 sequence
- binding (TwinStrep–HA–SHLD3): binds

B5: Ctc1 (protein, UniProt Q5SUQ9 1-1212)
chain: MAACRAQPPTSEQAWLEAAQTFIQETLCPAGKEVDKELTRSVIACVKETWLSQGENQDLTLPFSYSFVSVQSLKTHQRLPCCSHLSWSQSAYQAWTRGGRPGDGVLPREQLILLGTLVDLLGDSEQECRSGSLYVRDNTGTLDCELIDLDLSWLGHLFLFPSWSYLPSAKRNSLGEGHLELWGTPVPVFPLTVSPGPLIPIPVLYPEKASHLLRYRKKSSIKEINLAGKLVHLSALIITQNKRYFIMTLGELAQAGSQVSIIVQIPAQMVWHRVLRPGRAYVLTKLQVTKTRIHLSCIWTTIPSSTLKPLRPGYVQELELDLEFSKADLKPPPQPTSSKDSRGQEGLVRASKVLHYLGTVTAVLHESAGLYILDGQLILCLAYQKIHGLRRVIRPGVCLELRDVHLLQAVGGATTKPVLALCLHGTVRLQGFSCLKPLTLPSSKVYGASLYEQLVWKCQLGLPLYLWAAKTLEDLIYKLCPHVLRCHQFLKQPSPGKPSLGLQLLAPSWDVLIPPGSPMRHAYSEILEEPHNCPLQKYTPLQTPYSFPTMLALAEEGQHRAWATFDPKAMLPLPEASHLTSCQLNRHLAWSWVCLPSCVFQPAQVLLGVLVASSRKGCLELRDLRGSLPCIPLTESSQPLIDPNLVGCLVRVEKFQLVVEREVRSSFPSWEEMGMARFIQKKQARVYVQFYLADALILPVPRPTFGSEPSQTASSCPEGPHLGQSRLFLLSHKEALMKRNFCLLPGDSSQPAKPTLSFHVSGTWLCGTQRKEGSGWSPPESLAVESKDQKVFLIFLGSSVRWFPFLYPNQVYRLVASGPSQTPVFETEGSAGTSRRPLELADCGSCLTVQEEWTLELGSSQDIPNVLEVPRTLPESSLAQLLGDNSPDSLVSFSAEILSRILCEPPLALRRMKPGNAGAIKTGVKLTVALEMDDCEYPPHLDIYIEDPQLPPQIGLLPGARVHFSQLEKRISRSNIVYCCFRSSTSVQVLSFPPETKASAPLPHIYLAELLQGDRPPFQATTSCHIVYVLSLQILWVCAHCTSICPQGKCSRRDPSCPSQRAVSQANIRLLVEDGTAEATVICRNHLVARALGLSPSEWSSILEHARGPGRVALQFTGLGGQTESASKTHEPLTLLLRTLCTSPFVLRPVKLSFALERRPTDISPREPSRLQQFQCGELPLLTRVNPRLRLVCLSLQEPELPNPPQASAASS
- binding (TwinStrep–HA–SHLD3): binds
- binding (TwinStrep–HA–SHLD1 [2]): binds

B6: Stn1, Q8K2X3 1-378 (protein)
chain: B1 chain
- binding [3]: binds
